Results published in patent US20130178488A1, “TRICYCLIC COMPOUNDS, PREPARATION METHODS, AND THEIR USES” (priority 2011, published 2013).
Some entries share one result that the patent states for a list of compounds.

Target: T1, recombinant human Lp-PLA2 (Homo sapiens, UniProt Q13093)
T1 sequence (Q13093 22-441): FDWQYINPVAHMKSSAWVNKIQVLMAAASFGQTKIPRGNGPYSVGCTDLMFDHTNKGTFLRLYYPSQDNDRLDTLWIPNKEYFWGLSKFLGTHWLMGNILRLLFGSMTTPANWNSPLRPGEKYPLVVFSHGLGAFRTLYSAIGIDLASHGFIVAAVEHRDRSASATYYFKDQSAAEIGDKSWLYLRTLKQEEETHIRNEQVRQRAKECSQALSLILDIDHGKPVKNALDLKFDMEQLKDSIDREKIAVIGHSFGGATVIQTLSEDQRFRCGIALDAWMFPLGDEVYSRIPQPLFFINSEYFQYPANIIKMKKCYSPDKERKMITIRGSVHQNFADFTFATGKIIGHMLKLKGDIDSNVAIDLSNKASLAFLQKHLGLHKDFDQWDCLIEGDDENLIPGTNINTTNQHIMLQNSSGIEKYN
Assay: Recombinant human Lp-PLA2 assay (rhLp-PLA2, PED6 assay)
Format: biochemical
Settings: thresholds stated in text, upper limit of the assay is 9.3
Description: (1) Recombinant Human Lp-PLA2 Assay (rhLp-PLA2) (Also Referred to as “PED6” Assay)
N-((6-(2,4-dinitrophenyl)amino)-hexanoyl)-2-(4,4-difluoro-5,7-dimethyl-4-bora-3a,4a-diaza-s-indacene-3-pentanoyl)-1-hexadecanoyl-sn-glycero-3-phosphoethanolamine, triethylammonium salt (PED6) is a commercially available fluorescently-labeled phospholipid, which is commercially available from Molecular Probes. There is a quenching para-nitro phenyl (PNP) group in the sn3 position and a Bodipy fluorescein (FL) group in the sn2 position. Upon cleavage with LpPLA2, the Bodipy Fl group is liberated and then may result in an increase in fluorescence. Inhibitors of LpPLA2 therefore prevent this cleavage and no fluorescent increase is observed.
The PED6 assay is run as an unquenched 10 μL assay. Compounds source plate is prepared by making 1:3 (by volume) serial dilution of the compounds into pure DMSO on 384-well microplate. Then 0.01 μL of compounds on compound source plate are transferred into 384 well Greiner 784076 (black) plates by ECHO liquid dispenser. 5 μL of recombinant human Lp-PLA2 enzyme (2 nM rhLp-PLA2 in assay buffer of 50 mM HEPES, pH7.4, 150 mM NaCl, 1 mM CHAPS) is added to each well of the plate with compounds. Plates are centrifuged for 10 sec at 500 rpm. After 30 minutes preincubation, 5 μL of substrate (4 μM PED6 [from 5 mM DMSO stock] in assay buffer of 50 mM HEPES, pH7.4, 150 mM NaCl, 1 mM CHAPS) is added to 384 well Greiner 784076 (black) plates. Plates are centrifuged for 10 sec at 500 rpm. Plate is covered to protect from light and incubated for 20 min at room temperature. Plates are read for Fluorescence intensity at ex: 480/em: 540 using ViewLux microplate imager. PIC50 data, curve and QC analysis is conducted by using XL fit module in Excel.

| Structure (SMILES) | pIC50 values in the PED6 assay | other results |
| --- | --- | --- |
| COc1ccc2c(c1)CCn1c-2cc(OCCc2ccc(Oc3ccc(Cl)c(C(F)(F)F)c3)nc2)nc1=O [Example 84, 2-(2-(6-(4-chloro-3-(trifluoromethyl)phenoxy)pyridin-3-yl)ethoxy)-9-methoxy-6,7-dihydro-4H-pyrimido[6,1-a]isoquinolin-4-one] | at least 8.0 |  |
| COc1ccc2c(c1)CCn1c-2cc(OCCc2ccc(Oc3ccc(Cl)c(C(F)(F)F)c3)cc2)nc1=O [Example E12, 2-{[2-(4-{[4-Chloro-3-(trifluoromethyl)phenyl]oxy}phenyl)ethyl]oxy}-9-(methyloxy)-6,7-dihydro-4H-pyrimido[6,1-a]isoquinolin-4-one] | at least 8.0 |  |
| Cc1ccc2c(c1)CCn1c-2cc(OCc2ccc(Oc3cccc(C(F)(F)F)n3)c(C#N)c2)nc1=O [Example 127, 5-(((9-methyl-4-oxo-6,7-dihydro-4H-pyrimido[6,1-a]isoquinolin-2-yl)oxy)methyl)-2-((6-(trifluoromethyl)pyridin-2-yl)oxy)benzonitrile] | at least 8.0 |  |
| COc1ccc2c(c1)CCn1c-2cc(OCCc2ccc(Oc3ccc(Cl)c(C(F)(F)F)c3)cn2)nc1=O [Example E62, 2-(2-(5-(4-chloro-3-(trifluoromethyl)phenoxy)pyridin-2-yl)ethoxy)-9-methoxy-6,7-dihydro-4H-pyrimido[6,1-a]isoquinolin-4-one] | at least 8.0 |  |
| COc1ccc2c(c1)CCn1c-2cc(OCCc2ccc(Oc3ccc(C)nc3)c(F)c2)nc1=O [Example 87, 2-(3-fluoro-4-((6-methylpyridin-3-yl)oxy)phenethoxy)-9-methoxy-6,7-dihydro-4H-pyri-mido[6,1-a]isoquinolin-4-one] | at least 8.0 |  |
| COc1ccc2c(c1)CCn1c-2cc(OCc2ccc(F)c(Oc3ccc(Cl)cn3)c2)nc1=O [Example 82, 2-((3-((5-chloropyridin-2-yl)oxy)-4-fluorobenzyl)oxy)-9-methoxy-6,7-dihydro-4H-pyrimido[-6,1-a]isoquinolin-4-one] | at least 8.0 |  |
| N#Cc1cc(COc2cc3n(c(=O)n2)CCc2cc(F)ccc2-3)ccc1Oc1ccc(C(F)(F)F)cn1 [Example 93, 5-(((9-fluoro-4-oxo-6,7-dihydro-4H-pyrimido[6,1-a]isoquinolin-2-yl)oxy)methyl)-2-((5-(trifluoromethyl)pyridin-2-yl)oxy)benzonitrile] | at least 9.0 |  |
| COc1ccc2c(c1)CCn1c-2cc(OCc2ccc(Oc3cncc(C(F)(F)F)c3)c(C#N)c2)nc1=O [Example E34, 5-(((9-Methoxy-4-oxo-6,7-dihydro-4H-pyrimido[6,1-a]isoquinolin-2-yl)oxy)methyl)-2-((5-(trifluoromethyl)pyridin-3-yl)oxy)benzonitrile] | at least 8.0 |  |
| COc1ccc2c(c1)CCn1c-2cc(OCc2ccc(Oc3cccc(C(F)(F)F)n3)c(C#N)c2)nc1=O [Example 73, 5-(((9-methoxy-4-oxo-6,7-dihydro-4H-pyrimido[6,1-a]isoquinolin-2-yl)oxy)methyl)-2-((6-(trifluoromethyl)pyridin-2-yl)oxy)benzonitrile] | at least 8.0 |  |
| COc1ccc2c(c1)CCn1c-2cc(OCc2cnc(Oc3ccc(Cl)c(C(F)(F)F)c3)c(F)c2)nc1=O [Example E24, 2-((6-(4-Chloro-3-(trifluoromethyl)phenoxy)-5-fluoropyridin-3-yl)methoxy)-9-methoxy-6,7-dihydro-4H-pyrimido[6,1-a]isoquinolin-4-one] | at least 8.0 |  |
| N#Cc1cc(COc2cc3n(c(=O)n2)CCc2cc(Cl)ccc2-3)ccc1Oc1cccc(C(F)(F)F)n1 [Example 132, 5-(((9-chloro-4-oxo-6,7-dihydro-4H-pyrimido[6,1-a]isoquinolin-2-yl)oxy)methyl)-2-((6-(trifluoromethyl)pyridin-2-yl)oxy)benzonitrile] | at least 8.0 |  |
| COc1ccc2c(c1)CCn1c-2cc(OCc2ccc(Oc3cccnc3)c(C#N)c2)nc1=O [Example E46, 5-(((9-methoxy-4-oxo-6,7-dihydro-4H-pyrimido[6,1-a]isoquinolin-2-yl)oxy)methyl)-2-(pyridin-3-yloxy)benzonitrile] |  | pIC50 values in the PED6 assay (listed as 46): at least 9.0; pIC50 values in the PED6 assay (listed as example 46): at least 8.0 |
| COc1ccc2c(c1)CCn1c-2cc(OCc2ccc(Oc3cncc(C)c3)cc2)nc1=O [Example E53, 9-methoxy-2-((4-((5-methylpyridin-3-yl)oxy)benzyl)oxy)-6,7-dihydro-4H-pyrimido[6,1-a]isoquinolin-4-one] | at least 8.0 |  |
| COc1ccc2c(c1)CCn1c-2cc(OCc2ccc(Oc3ccc(C(F)(F)F)nc3)c(F)c2)nc1=O [Example E58, 2-((3-fluoro-4-((6-(trifluoromethyl)pyridin-3-yl)oxy)benzyl)oxy)-9-methoxy-6,7-dihydro-4H-pyrimido[6,1-a]isoquinolin-4-one] |  | pIC50 values in the PED6 assay (listed as 58): at least 9.0; pIC50 values in the PED6 assay (listed as example 58): at least 8.0 |
| O=c1nc(OCc2cc(F)c(Oc3ccc(C(F)(F)F)nc3)c(F)c2)cc2n1CCc1cc(F)ccc1-2 [Example 109, 2-((3,5-difluoro-4-((6-(trifluoromethyl)pyridin-3-yl)oxy)benzyl)oxy)-9-fluoro-6,7-dihydro-4H-pyrimido[6,1-a]isoquinolin-4-one] | at least 8.0 |  |
| COc1ccc2c(c1)CCn1c-2cc(NCc2ccc(Oc3ccc(Cl)c(C(F)(F)F)c3)c(C#N)c2)nc1=O [Example E31, 2-(4-Chloro-3-(trifluoromethyl)phenoxy)-5-(((9-methoxy-4-oxo-6,7-dihy-dro-4H-pyrimido[6,1-a]isoquinolin-2-yl)amino)methyl)benzonitrile] | at least 8.0 |  |
| COc1ccc2c(c1)CCn1c-2cc(OCc2ccc(Oc3cncc(C#N)c3)c(Cl)c2)nc1=O [Example E49, 5-(2-chloro-4-(((9-methoxy-4-oxo-6,7-dihydro-4H-pyrimido[6,1-a]isoquinolin-2-yl)oxy)methyl)phenoxy)nicotinonitrile] | at least 8.0 |  |
| Cc1ccc2c(c1)CCn1c-2cc(OCc2cc(F)c(Oc3ccc(C(F)(F)F)nc3)c(F)c2)nc1=O [Example 114, 2-((3,5-difluoro-4-((6-(trifluoromethyl)pyridin-3-yl)oxy)benzyl)oxy)-9-methyl-6,7-dihydro-4H-pyrimido[6,1-a]isoquinolin-4-one] | at least 8.0 |  |
| COc1ccc2c(c1)CCn1c-2cc(OCc2ccc(Oc3cncc(C#N)c3)c(F)c2)nc1=O [Example E52, 5-(2-fluoro-4-(((9-methoxy-4-oxo-6,7-dihydro-4H-pyrimido[6,1-a]isoquinolin-2-yl)oxy)me-thyl)phenoxy)nicotinonitrile] | at least 8.0 |  |
| O=c1nc(OCc2cc(F)c(Oc3ccc(C(F)(F)F)nc3)c(F)c2)cc2n1CCc1cc(Cl)ccc1-2 [Example 134, 9-chloro-2-((3,5-difluoro-4-((6-(trifluoromethyl)pyridin-3-yl)oxy)benzyl)oxy)-6,7-dihydro-4H-pyrimido[6,1-a]isoquinolin-4-one] | at least 8.0 |  |
| N#Cc1cc(CCOc2cc3n(c(=O)n2)CCc2cc(F)ccc2-3)ccc1Oc1ccc(C(F)(F)F)cn1 [Example 110, 5-(2-((9-fluoro-4-oxo-6,7-dihydro-4H-pyrimido[6,1-a]isoquinolin-2-yl)oxy)ethyl)-2-((5-(trifluoromethyl)pyridin-2-yl)oxy)benzonitrile] | at least 8.0 |  |
| COc1ccc2c(c1)CCn1c-2cc(NCc2ccc(Oc3cncc(Cl)c3)cc2)nc1=O [Example E29, 2-((4-((5-Chloropyridin-3-yl)oxy)benzyl)amino)-9-methoxy-6,7-dihydro-4H-pyrimido[6,1-a]isoquinolin-4-one] | at least 8.0 |  |
| COc1ccc2c(c1)CCn1c-2cc(OCc2ccc(Oc3ccc(Cl)c(C(F)(F)F)c3)nc2)nc1=O [Example E21] | at least 8.0 |  |
